Laboratory results: PubChem BioAssay AID1159584 (Peter MacCallum Cancer Centre, 2016)
Shown is an unselected part of about 18,000 reagents tested. Further read-outs or replicates are left out here. Not stated in the record: the amount of reagent, the time to read-out.

- Purpose: 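Knock-downs that harm CDH1-null cells more than parental MCF10A cells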 (primary screen)
- System: human MCF10A breast epithelial cells, parental and CDH1-null
- Knock-down reagent: siRNA against human genes
- Detection: 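Cell viability by CellTiter-Glo ATP luminescence, each line scaled to the mean of mock wells across plates, then CDH1-null over parental ratio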
- Direction: CDH1-null / parental viability ratio: higher = CDH1-null cells survive relatively better than parental

gene | CDH1-null / parental viability ratio
USH1C (USH1 protein network component harmonin) | 1.52
AIMP1 | 0.93
LELP1 (late cornified envelope like proline rich 1) | 0.7
SPRR4 (small proline rich protein 4) | 1
RFLNB (refilin B) | 0.92
HES3 (hes family bHLH transcription factor 3) | 0.86
ORC5 (origin recognition complex subunit 5) | 1.24
TCOF1 (treacle ribosome biogenesis factor 1) | 0.89
WNK3 (WNK lysine deficient protein kinase 3) | 1.11
TPCN1 (two pore segment channel 1) | 1.12
UVSSA (UV stimulated scaffold protein A) | 1.02
FKBP15 (FKBP prolyl isomerase family member 15) | 1.05
ABCC5 (ATP binding cassette subfamily C member 5) | 0.94
DHCR24 (24-dehydrocholesterol reductase) | 0.82
RECQL4 (RecQ like helicase 4) | 1.29
MORC4 (MORC family CW-type zinc finger 4) | 0.95
NDRG3 (NDRG family member 3) | 1.07
WWP1 (WW domain containing E3 ubiquitin protein ligase 1) | 1.06
PPOX (protoporphyrinogen oxidase) | 1.03
DHRS4L1 (dehydrogenase/reductase 4 like 1 (pseudogene)) | 1.01
NT5DC2 (5'-nucleotidase domain containing 2) | 0.92
GCM1 (GCM transcription factor 1) | 1.07
TTC33 (tetratricopeptide repeat domain 33) | 0.97
LRRC14B (leucine rich repeat containing 14B) | 1.02
CLCA2 (chloride channel accessory 2) | 1.19
RCL1 (RNA terminal phosphate cyclase like 1) | 1.12
SOX18 (SRY-box transcription factor 18) | 0.98
UCKL1 (uridine-cytidine kinase 1 like 1) | 0.99
IFNA17 (interferon alpha 17) | 1.07
MEAK7 (MTOR associated protein MEAK7) | 1.09
KIF18A (kinesin family member 18A) | 0.99
SCGB2A1 (secretoglobin family 2A member 1) | 0.95
LIPF (lipase F, gastric type) | 1.07
TMTC1 (transmembrane O-mannosyltransferase targeting cadherins 1) | 0.94
PTN (pleiotrophin) | 0.96
NDUFS4 (NADH:ubiquinone oxidoreductase subunit S4) | 1.01
MDH1B (malate dehydrogenase 1B) | 0.62
PTK2 (protein tyrosine kinase 2) | 0.83
BNC2 (basonuclin zinc finger protein 2) | 0.75

Next part, starting with the last 10 of the part before.
gene | CDH1-null / parental viability ratio
MEAK7 (MTOR associated protein MEAK7) | 1.09
KIF18A (kinesin family member 18A) | 0.99
SCGB2A1 (secretoglobin family 2A member 1) | 0.95
LIPF (lipase F, gastric type) | 1.07
TMTC1 (transmembrane O-mannosyltransferase targeting cadherins 1) | 0.94
PTN (pleiotrophin) | 0.96
NDUFS4 (NADH:ubiquinone oxidoreductase subunit S4) | 1.01
MDH1B (malate dehydrogenase 1B) | 0.62
PTK2 (protein tyrosine kinase 2) | 0.83
BNC2 (basonuclin zinc finger protein 2) | 0.75
RPS24 (ribosomal protein S24) | 1.65
CDO1 (cysteine dioxygenase type 1) | 0.86
HECTD2 (HECT domain E3 ubiquitin protein ligase 2) | 1.06
E2F4 (E2F transcription factor 4) | 0.91
COMTD1 (catechol-O-methyltransferase domain containing 1) | 1.09
USF3 (upstream transcription factor family member 3) | 1.32
LRP12 (LDL receptor related protein 12) | 1.28
FAM117A (family with sequence similarity 117 member A) | 1.35
TMEM106B (transmembrane protein 106B) | 0.87
RBM14 (RNA binding motif protein 14) | 1.25
CCDC124 (coiled-coil domain containing 124) | 0.69
FGGY (FGGY carbohydrate kinase domain containing) | 0.93
OR5J2 (olfactory receptor family 5 subfamily J member 2) | 1.13
ZNF141 (zinc finger protein 141) | 1.35
OR10H3 (olfactory receptor family 10 subfamily H member 3) | 0.86
C19orf12 (chromosome 19 open reading frame 12) | 0.89
AHCYL1 (adenosylhomocysteinase like 1) | 0.99
IKZF2 (IKAROS family zinc finger 2) | 1.19
ZCWPW2 (zinc finger CW-type and PWWP domain containing 2) | 1.41
DGAT1 (diacylglycerol O-acyltransferase 1) | 1.03
TNFRSF21 (TNF receptor superfamily member 21) | 1.16
NME4 (NME/NM23 nucleoside diphosphate kinase 4) | 0.85
PTPRA (protein tyrosine phosphatase receptor type A) | 1.23
PEA15 (proliferation and apoptosis adaptor protein 15) | 1.03
PCDHGA3 (protocadherin gamma subfamily A, 3) | 0.95
DQX1 (DEAQ-box RNA dependent ATPase 1) | 1.37
HTR1E (5-hydroxytryptamine receptor 1E) | 0.79
MRPL41 (mitochondrial ribosomal protein L41) | 0.76
RLIM (ring finger protein, LIM domain interacting) | 1
TIMM9 (translocase of inner mitochondrial membrane 9) | 1.08
ARHGAP44 (Rho GTPase activating protein 44) | 0.91
RNF180 (ring finger protein 180) | 1.01
SLC31A1 | 0.97
TTLL6 (tubulin tyrosine ligase like 6) | 0.75
CTIF (cap binding complex dependent translation initiation factor) | 1.24
PRMT6 (protein arginine methyltransferase 6) | 1.18
PHOX2B (paired like homeobox 2B) | 0.9
ZMAT4 (zinc finger matrin-type 4) | 1.01
RICTOR (RPTOR independent companion of MTOR complex 2) | 1.01
GDF11 (growth differentiation factor 11) | 1.12
SLC10A7 | 1.07
NPM2 (nucleophosmin/nucleoplasmin 2) | 1.21
MED1 (mediator complex subunit 1) | 1.02
ITSN2 (intersectin 2) | 0.72
SPAG9 (sperm associated antigen 9) | 0.82
SEPHS2 (selenophosphate synthetase 2) | 0.95
GPT2 (glutamic--pyruvic transaminase 2) | 1.29
IL34 (interleukin 34) | 0.98
